Source: US20260193623

Assays:
Assay in all cases: activity assay
MG153-20 = system: T1, MG153-20; conditions: primer extension gel; 3 mM MgCl2, 37 C; protein translated in vitro; protein details: N-terminal Strep; label: 5'-FAM primer; DNA:RNA hybrid
T1 sequence (limits assumed): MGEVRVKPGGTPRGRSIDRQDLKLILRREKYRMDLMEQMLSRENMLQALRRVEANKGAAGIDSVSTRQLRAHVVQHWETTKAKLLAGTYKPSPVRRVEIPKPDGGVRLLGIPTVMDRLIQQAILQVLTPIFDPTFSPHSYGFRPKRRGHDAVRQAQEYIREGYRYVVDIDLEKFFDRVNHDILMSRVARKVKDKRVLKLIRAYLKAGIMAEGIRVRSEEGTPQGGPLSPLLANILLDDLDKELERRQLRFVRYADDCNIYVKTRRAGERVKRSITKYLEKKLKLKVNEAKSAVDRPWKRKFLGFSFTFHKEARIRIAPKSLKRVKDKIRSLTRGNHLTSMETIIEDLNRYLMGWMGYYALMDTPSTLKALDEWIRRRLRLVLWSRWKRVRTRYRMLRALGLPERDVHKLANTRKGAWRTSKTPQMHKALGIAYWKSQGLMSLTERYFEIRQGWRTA

MG153-31 = system: T2, MG153-31; conditions: primer extension gel; 3 mM MgCl2, 37 C; protein translated in vitro; protein details: N-terminal Strep; label: 5'-FAM primer; DNA:RNA hybrid
T2 sequence (limits assumed): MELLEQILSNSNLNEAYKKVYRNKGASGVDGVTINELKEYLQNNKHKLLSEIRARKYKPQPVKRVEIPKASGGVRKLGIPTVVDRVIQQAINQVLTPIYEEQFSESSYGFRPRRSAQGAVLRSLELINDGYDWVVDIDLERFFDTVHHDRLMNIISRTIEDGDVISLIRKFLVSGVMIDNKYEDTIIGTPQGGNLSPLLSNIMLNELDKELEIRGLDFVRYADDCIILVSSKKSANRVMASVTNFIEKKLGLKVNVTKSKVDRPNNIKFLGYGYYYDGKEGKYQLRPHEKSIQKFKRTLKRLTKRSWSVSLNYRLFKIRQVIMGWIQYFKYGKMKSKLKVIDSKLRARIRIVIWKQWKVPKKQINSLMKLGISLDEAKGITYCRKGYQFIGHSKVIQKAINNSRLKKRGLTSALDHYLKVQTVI

MG153-15 = system: T3, MG153-15; conditions: primer extension gel; 3 mM MgCl2, 37 C; protein translated in vitro; protein details: N-terminal Strep; label: 5'-FAM primer; DNA:RNA hybrid
T3 sequence (limits assumed): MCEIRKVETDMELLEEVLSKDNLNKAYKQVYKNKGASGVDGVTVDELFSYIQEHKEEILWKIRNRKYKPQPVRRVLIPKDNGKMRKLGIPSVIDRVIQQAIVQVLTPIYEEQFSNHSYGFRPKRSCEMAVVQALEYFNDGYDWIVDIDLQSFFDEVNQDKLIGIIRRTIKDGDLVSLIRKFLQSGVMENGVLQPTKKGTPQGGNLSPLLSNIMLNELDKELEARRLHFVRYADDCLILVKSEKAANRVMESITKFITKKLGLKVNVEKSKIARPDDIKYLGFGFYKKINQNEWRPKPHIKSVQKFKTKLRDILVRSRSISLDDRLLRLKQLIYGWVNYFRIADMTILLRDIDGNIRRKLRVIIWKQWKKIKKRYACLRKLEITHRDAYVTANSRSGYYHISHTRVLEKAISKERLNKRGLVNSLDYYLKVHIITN

MG153-3 = system: T4, MG153-3; conditions: primer extension gel; 3 mM MgCl2, 37 C; protein translated in vitro; protein details: N-terminal Strep; label: 5'-FAM primer; DNA:RNA hybrid
T4 sequence (limits assumed): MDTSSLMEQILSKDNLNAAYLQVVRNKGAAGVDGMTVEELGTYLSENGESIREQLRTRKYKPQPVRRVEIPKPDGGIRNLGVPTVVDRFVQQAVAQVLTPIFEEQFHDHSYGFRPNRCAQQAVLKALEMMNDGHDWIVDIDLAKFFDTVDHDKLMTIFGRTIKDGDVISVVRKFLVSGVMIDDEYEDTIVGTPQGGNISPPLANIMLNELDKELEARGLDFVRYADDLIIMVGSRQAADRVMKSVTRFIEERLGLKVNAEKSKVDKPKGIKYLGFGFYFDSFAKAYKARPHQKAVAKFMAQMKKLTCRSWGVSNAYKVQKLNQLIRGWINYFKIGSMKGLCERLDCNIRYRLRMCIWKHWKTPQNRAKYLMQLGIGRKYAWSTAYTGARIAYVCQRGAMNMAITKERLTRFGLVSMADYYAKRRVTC

MG153-5 = system: T5, MG153-5; conditions: primer extension gel; 3 mM MgCl2, 37 C; protein translated in vitro; protein details: N-terminal Strep; label: 5'-FAM primer; DNA:RNA hybrid
T5 sequence (limits assumed): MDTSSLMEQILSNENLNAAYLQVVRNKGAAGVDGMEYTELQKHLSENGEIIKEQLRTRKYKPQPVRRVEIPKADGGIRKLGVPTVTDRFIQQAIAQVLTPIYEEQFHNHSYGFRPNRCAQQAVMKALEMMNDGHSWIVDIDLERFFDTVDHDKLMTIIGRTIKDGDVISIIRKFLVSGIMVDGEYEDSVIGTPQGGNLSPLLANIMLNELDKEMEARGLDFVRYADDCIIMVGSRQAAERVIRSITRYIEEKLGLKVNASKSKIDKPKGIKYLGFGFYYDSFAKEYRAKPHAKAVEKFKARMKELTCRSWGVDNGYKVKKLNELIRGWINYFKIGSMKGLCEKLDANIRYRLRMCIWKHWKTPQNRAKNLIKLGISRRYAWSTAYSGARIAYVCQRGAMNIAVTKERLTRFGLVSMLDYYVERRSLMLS

MG151-95 = system: T6, MG151-95; conditions: primer extension gel; protein translated in vitro; protein details: Strep, RT-RNase H trim; label: 5'-FAM primer; DNA:RNA hybrid
T6 sequence: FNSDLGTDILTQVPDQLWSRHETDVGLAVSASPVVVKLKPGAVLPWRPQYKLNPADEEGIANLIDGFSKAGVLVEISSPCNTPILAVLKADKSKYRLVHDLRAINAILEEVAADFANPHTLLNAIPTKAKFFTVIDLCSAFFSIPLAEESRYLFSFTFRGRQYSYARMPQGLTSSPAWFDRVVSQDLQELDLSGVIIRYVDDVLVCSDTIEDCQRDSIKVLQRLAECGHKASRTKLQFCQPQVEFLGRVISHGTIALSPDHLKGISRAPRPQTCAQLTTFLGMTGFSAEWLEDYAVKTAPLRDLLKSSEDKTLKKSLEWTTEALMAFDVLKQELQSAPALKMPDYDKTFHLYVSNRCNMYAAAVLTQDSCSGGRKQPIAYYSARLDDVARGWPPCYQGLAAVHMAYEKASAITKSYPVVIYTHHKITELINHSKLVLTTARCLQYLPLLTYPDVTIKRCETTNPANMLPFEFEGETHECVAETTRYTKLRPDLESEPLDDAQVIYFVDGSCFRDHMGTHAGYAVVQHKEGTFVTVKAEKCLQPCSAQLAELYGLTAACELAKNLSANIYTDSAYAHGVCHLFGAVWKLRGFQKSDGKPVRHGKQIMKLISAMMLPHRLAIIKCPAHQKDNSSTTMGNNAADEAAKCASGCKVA

Measured: activity on this sequence

GGCAAACCGCCTCTCCCCGCGCGTTGGCCGATTCATTAATGCAGCTGGCACGACAGGTTTCCCGACTGGAAAGGAGACCCGGGCAGTGAGCGCAACGGGTCTCCAATTTAAGCCAGCCCCGACACCCGCCAACACCCGCTGACGCGCCCTGACGGGCTTGTCTGCTCCCGGCATCCGCTTACAGACAAGCTGTGACCGTCTC / GAGACGGTCACAGCTTGTCTG [202-nt RNA template annealed to DNA primer]
active: all assays above

For at least one entry, the source does not settle the construct or the ends of the probe. Protein sequences can lack the tags named with them.
